According to US20040044037A1, “Amidino-urea serotonin receptor ligands and compositions, their pharmaceutical uses, and methods for their snythesis” (priority 2003, published 2004):
The structures given here were assigned with low confidence; some may be wrong.

Protein sequences, listed by entry. Tags and fused reporters are not part of them. Residues count along the entry.
UniProt P34969, 1-432 limits assumed: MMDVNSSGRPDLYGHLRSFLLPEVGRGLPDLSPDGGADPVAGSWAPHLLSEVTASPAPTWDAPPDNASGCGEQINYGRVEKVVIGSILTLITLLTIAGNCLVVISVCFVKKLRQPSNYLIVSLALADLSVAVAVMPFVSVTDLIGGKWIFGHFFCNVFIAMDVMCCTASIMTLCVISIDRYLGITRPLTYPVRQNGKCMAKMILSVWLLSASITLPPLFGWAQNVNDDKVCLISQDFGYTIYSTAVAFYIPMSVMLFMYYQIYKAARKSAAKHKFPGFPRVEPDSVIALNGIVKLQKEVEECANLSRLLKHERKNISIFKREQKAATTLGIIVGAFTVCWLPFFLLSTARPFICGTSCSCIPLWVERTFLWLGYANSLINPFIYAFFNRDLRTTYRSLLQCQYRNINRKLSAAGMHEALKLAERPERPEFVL

Target: human 5-HT7B (h5-HT7b) receptors (Homo sapiens, UniProt P34969)
Assay: Competition radioligand binding, h5-HT7b
Details: read-out: Ki 5-HT7; [3H]5-CT; membranes of HEK 293 cells

N=C(NC(=O)NC1CCCCC1O)N1CCc2ccccc2C1 (stereo not shown)
Ki: > 4 µM
